Measurements: the supplement of paper PMC10849652
The list shows a part of the results.

Chains of the proteins cited; added tags and fusions are not shown. Lines headed by an entry give the natural chain unless they say otherwise; changes in a name come on top.
UniProt Q5VT52: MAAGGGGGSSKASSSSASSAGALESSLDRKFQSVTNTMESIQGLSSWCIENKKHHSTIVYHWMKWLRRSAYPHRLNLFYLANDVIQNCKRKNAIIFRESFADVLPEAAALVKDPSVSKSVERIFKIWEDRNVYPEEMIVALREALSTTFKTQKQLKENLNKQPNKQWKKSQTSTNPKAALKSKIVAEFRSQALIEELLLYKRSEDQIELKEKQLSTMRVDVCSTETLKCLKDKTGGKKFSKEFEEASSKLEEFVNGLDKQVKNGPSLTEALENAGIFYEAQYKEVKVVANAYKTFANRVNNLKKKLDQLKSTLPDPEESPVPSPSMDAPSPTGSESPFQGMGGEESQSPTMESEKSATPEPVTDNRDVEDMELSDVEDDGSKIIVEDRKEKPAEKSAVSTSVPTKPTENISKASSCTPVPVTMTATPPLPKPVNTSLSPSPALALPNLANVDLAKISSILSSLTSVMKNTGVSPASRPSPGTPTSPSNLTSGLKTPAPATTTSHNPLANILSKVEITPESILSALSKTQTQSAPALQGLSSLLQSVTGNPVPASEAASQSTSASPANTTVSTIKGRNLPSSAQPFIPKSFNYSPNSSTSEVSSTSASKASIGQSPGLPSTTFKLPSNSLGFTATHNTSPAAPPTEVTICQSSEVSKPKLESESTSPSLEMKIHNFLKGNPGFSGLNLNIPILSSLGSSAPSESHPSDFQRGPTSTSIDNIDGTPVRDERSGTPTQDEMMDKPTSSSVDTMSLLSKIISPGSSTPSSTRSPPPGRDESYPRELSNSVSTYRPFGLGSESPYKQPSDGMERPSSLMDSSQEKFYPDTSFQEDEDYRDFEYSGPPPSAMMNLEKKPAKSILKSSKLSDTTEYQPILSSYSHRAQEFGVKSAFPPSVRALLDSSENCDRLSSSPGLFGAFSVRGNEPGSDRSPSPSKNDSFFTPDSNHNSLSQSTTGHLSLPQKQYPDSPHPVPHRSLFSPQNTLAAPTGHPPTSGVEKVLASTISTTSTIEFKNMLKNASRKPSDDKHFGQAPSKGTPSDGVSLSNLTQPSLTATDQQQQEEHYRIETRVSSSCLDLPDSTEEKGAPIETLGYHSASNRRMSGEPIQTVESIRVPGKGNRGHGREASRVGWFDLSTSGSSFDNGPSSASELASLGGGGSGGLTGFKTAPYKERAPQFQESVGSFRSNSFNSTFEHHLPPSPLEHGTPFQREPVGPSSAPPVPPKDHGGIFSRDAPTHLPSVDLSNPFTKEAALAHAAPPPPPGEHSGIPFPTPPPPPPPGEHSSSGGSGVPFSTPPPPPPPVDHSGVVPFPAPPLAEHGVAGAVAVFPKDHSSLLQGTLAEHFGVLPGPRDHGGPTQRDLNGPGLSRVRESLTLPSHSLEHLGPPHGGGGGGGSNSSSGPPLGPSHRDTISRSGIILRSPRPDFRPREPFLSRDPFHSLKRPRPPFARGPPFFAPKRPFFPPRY
UniProt P23443: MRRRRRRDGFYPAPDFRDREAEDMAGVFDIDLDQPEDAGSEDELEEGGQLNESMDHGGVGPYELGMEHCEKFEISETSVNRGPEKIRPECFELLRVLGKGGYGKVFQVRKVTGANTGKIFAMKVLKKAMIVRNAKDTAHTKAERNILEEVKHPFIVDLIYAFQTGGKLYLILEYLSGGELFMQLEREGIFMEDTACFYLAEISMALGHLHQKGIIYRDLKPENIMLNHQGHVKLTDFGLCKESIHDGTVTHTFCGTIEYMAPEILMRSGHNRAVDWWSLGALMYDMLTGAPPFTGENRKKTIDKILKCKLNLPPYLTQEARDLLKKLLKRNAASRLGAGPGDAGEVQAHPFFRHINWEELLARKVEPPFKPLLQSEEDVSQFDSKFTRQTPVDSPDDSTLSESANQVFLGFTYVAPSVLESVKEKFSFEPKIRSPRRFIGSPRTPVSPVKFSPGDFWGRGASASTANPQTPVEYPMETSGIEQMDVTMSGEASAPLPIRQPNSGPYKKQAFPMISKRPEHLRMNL
UniProt Q7L099: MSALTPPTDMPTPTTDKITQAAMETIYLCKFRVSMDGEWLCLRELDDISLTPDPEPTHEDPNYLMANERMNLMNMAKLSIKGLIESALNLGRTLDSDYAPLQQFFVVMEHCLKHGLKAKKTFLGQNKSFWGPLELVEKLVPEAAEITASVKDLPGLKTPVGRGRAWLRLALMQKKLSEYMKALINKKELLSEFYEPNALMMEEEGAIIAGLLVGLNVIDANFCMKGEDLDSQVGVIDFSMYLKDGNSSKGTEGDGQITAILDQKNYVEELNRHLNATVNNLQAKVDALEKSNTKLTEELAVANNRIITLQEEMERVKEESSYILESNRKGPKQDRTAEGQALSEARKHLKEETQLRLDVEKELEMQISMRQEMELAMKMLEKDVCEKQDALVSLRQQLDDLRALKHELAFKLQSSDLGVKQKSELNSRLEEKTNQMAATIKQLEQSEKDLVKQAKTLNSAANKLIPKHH
UniProt P05387, whole entry, looked up: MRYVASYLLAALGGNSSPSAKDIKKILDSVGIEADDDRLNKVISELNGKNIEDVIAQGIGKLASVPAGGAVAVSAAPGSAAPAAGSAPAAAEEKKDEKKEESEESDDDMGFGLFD
UniProt O95197: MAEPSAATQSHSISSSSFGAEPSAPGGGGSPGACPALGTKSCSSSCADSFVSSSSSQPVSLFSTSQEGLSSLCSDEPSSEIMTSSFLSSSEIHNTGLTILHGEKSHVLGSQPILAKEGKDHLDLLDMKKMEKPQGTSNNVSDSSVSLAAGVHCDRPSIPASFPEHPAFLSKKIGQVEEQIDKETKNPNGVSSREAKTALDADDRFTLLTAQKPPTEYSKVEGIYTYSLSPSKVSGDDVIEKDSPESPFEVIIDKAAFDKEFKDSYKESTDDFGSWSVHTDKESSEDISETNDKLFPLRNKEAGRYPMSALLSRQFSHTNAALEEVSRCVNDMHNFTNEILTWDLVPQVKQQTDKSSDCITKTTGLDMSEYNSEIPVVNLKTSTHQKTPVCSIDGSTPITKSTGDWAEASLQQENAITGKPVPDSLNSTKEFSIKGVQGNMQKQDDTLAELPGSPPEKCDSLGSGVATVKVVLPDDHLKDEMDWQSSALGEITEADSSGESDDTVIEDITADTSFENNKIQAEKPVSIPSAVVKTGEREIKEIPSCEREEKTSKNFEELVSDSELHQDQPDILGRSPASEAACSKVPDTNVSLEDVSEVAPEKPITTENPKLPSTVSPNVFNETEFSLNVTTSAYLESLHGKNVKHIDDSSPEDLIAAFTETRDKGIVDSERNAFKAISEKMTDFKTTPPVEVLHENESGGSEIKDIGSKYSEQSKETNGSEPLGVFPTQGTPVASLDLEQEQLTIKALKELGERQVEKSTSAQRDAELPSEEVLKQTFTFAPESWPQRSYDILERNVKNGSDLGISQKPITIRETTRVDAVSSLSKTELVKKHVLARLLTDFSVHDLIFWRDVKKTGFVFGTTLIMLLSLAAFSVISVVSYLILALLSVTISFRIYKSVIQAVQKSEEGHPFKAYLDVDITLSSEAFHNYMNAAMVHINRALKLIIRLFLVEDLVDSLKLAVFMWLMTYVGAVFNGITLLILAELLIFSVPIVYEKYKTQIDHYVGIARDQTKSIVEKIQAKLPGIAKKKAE
UniProt P31350, whole entry, looked up: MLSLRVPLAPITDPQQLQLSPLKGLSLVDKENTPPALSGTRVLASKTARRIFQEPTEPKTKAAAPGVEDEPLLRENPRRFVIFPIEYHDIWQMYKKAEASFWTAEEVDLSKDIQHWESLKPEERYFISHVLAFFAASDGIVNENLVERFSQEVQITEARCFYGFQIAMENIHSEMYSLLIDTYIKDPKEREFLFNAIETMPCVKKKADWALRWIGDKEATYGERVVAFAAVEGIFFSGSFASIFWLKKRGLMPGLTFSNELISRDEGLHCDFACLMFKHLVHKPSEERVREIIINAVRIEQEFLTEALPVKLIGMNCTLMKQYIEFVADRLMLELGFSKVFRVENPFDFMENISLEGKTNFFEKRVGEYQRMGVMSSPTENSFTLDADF
UniProt Q9BUL9: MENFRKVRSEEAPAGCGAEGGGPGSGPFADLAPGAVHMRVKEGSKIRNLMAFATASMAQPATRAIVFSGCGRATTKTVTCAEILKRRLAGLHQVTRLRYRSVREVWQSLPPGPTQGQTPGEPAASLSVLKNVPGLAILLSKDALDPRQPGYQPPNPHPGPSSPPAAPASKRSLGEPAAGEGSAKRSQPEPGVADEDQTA
UniProt Q92622: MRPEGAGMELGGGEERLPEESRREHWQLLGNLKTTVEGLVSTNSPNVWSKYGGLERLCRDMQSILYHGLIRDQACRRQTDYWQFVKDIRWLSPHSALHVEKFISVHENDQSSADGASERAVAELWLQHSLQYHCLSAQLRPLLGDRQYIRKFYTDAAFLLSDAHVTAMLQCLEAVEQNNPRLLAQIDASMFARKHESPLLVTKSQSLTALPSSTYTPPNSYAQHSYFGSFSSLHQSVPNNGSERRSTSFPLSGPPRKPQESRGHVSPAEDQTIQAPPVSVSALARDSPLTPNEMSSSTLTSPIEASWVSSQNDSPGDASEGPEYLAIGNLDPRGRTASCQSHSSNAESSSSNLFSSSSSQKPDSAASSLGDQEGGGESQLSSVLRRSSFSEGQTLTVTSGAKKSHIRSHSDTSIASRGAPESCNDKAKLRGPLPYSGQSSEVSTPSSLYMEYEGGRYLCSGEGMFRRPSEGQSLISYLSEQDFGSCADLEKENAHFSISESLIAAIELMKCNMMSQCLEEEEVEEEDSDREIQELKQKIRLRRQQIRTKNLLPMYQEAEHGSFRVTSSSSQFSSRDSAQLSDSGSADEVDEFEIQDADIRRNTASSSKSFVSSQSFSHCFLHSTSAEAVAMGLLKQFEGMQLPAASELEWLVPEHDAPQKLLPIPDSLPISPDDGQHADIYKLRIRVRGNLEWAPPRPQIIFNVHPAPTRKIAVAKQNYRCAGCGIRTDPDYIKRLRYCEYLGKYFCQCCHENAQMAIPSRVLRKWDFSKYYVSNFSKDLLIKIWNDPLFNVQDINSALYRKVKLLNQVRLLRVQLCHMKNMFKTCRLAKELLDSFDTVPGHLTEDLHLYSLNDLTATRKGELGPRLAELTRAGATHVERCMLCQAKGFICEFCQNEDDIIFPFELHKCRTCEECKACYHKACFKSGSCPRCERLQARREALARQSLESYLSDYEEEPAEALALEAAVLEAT
UniProt O75298: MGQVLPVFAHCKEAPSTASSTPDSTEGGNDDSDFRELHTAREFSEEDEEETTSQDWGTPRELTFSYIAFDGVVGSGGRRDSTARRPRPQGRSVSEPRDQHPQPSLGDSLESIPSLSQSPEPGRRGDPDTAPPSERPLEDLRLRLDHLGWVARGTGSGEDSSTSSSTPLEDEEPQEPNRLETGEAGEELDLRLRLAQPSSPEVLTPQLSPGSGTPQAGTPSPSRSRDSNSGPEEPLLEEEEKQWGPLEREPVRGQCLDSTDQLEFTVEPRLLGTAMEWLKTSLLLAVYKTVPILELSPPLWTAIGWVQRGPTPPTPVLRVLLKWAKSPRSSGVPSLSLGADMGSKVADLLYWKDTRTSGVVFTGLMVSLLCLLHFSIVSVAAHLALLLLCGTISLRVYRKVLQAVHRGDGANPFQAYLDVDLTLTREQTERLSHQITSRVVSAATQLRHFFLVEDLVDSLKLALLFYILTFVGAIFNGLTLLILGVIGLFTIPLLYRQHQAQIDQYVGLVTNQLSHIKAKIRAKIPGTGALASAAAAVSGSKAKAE
UniProt Q6PCB5: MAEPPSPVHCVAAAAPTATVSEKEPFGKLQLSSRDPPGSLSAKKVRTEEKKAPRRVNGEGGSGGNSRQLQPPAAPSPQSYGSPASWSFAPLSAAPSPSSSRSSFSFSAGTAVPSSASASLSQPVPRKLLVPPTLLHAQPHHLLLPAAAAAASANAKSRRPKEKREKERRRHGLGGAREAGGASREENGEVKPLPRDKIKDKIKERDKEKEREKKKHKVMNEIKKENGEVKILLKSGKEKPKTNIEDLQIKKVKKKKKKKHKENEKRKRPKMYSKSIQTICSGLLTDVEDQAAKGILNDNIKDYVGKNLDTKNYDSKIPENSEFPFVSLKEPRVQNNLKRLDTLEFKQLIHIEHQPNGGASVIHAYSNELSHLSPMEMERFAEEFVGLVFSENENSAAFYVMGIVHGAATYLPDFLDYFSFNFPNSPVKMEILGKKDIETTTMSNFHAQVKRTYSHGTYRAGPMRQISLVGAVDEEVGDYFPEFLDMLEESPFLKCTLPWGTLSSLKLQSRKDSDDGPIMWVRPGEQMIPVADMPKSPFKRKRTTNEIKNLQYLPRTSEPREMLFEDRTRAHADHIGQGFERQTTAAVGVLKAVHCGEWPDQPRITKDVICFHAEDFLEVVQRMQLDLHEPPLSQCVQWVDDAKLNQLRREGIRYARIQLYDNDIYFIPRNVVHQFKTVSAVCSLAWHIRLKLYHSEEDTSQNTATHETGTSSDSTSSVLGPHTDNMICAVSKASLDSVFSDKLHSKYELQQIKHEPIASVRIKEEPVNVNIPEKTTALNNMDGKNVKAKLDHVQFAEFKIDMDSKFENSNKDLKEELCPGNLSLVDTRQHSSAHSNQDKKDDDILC

Columns and labels:
Test in all cases: log2 fold change, soluble protein after heating vs DMSO (PISA); higher = thermal stabilisation; K562 lysate, 10 uM; active = over 0.2 and 3.5 SD of the protein, either way, in both replicates (recomputed)
alvocidib = compound: CN1CC[C@H](c2c(O)cc(O)c3c(=O)cc(-c4ccccc4Cl)oc23)[C@H](O)C1 [alvocidib]
Outline: (§1)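 Log-two fold change in thermal stability relative to solvent controls is reported from duplicates. For each sample, crude K562 extract from dounce-homogenised pellets in PBS pH 7.4 with 1 mM MgCl2, at 1 mg/mL protein, was treated with 10 μM compound for 30 min. Aliquots heated for 3 min across 48°C-58°C were pooled, brought to 0.5% NP-40 at 4°C and cleared at 21,000xg for 90 min. The supernatant was quantified by TMTpro 16plex LC-MS/MS with channel sums equalised.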

Tubastatin A = compound: CN1CCc2c(c3ccccc3n2Cc2ccc(C(=O)NO)cc2)C1 [Tubastatin A]
Outline: as §1

[1] = compound: CNC(=O)C1=CC=CC=C1NC2=NC(=NC=C2Cl)NC3=C(C=C(C=C3)N4CCOCC4)OC
Outline: as §1

defactinib = compound: CNC(=O)c1ccc(Nc2ncc(C(F)(F)F)c(NCc3nccnc3N(C)S(C)(=O)=O)n2)cc1 [defactinib]
Outline: as §1

[2] = compound: CNc1nc(-c2ccc3c(N)n[nH]c3c2)cc(N2C[C@@H](C(=O)NC3CCCCC3)CC[C@H]2C)n1
Outline: as §1

encorafenib = compound: COC(=O)N[C@@H](C)CNc1nccc(-c2cn(C(C)C)nc2-c2cc(Cl)cc(NS(C)(=O)=O)c2F)n1 [encorafenib]
Outline: as §1

[3] = compound: COC(=O)[C@H](CCSC)NC(=O)C1=C(C=C(C=C1)NC[C@H](CS)N)C2=CC=CC=C2
Outline: as §1

alisertib = compound: COc1cc(Nc2ncc3c(n2)-c2ccc(Cl)cc2C(c2c(F)cccc2OC)=NC3)ccc1C(=O)O [alisertib]
Outline: as §1

[4] = compound: COc1cc2nc(-c3cc(F)ccc3O)nc(N[C@@H]3CNC[C@H]3C(C)(C)O)c2cc1OC
Outline: as §1

gefitinib = compound: COc1cc2ncnc(Nc3ccc(F)c(Cl)c3)c2cc1OCCCN1CCOCC1 [gefitinib]
Outline: as §1

lapatinib = compound: CS(=O)(=O)CCNCc1ccc(-c2ccc3ncnc(Nc4ccc(OCc5cccc(F)c5)c(Cl)c4)c3c2)o1 [lapatinib]
Outline: as §1

pictilisib = compound: CS(=O)(=O)N1CCN(Cc2cc3nc(-c4cccc5[nH]ncc45)nc(N4CCOCC4)c3s2)CC1 [pictilisib]
Outline: as §1

crizotinib = compound: C[C@@H](Oc1cc(-c2cnn(C3CCNCC3)c2)cnc1N)c1c(Cl)ccc(F)c1Cl [crizotinib]
Outline: as §1

[5] = compound: C[C@H](C1=CC=C(C=C1)C(=O)NC2=C3C=CNC3=NC=C2)N
Outline: as §1

duvelisib = compound: C[C@H](Nc1ncnc2nc[nH]c12)c1cc2cccc(Cl)c2c(=O)n1-c1ccccc1 [duvelisib]
Outline: as §1

gandotinib = compound: Cc1cc(Nc2cc(CN3CCOCC3)c3nc(C)c(Cc4ccc(Cl)cc4F)n3n2)n[nH]1 [gandotinib]
Outline: as §1

tozasertib = compound: Cc1cc(Nc2cc(N3CCN(C)CC3)nc(Sc3ccc(NC(=O)C4CC4)cc3)n2)n[nH]1 [tozasertib]
Outline: as §1

doramapimod = compound: Cc1ccc(-n2nc(C(C)(C)C)cc2NC(=O)Nc2ccc(OCCN3CCOCC3)c3ccccc23)cc1 [doramapimod]
Outline: as §1

bafetinib = compound: Cc1ccc(NC(=O)c2ccc(CN3CC[C@H](N(C)C)C3)c(C(F)(F)F)c2)cc1Nc1nccc(-c2cncnc2)n1 [bafetinib]
Outline: as §1

[6] = compound: Cc1cccc(CC(=O)N2CCc3c2ccc(-c2cn(C)c4ncnc(N)c24)c3F)n1
Outline: as §1

Measured: log2 fold change

RPS11 (UniProt P62280)
inactive: alvocidib 0.043 | Tubastatin A -0.001 | [1] -0.011 | defactinib -0.004 | [2] 0 | encorafenib -0.041 | [3] 0.062 | alisertib 0.001 | [4] 0.011 | gefitinib -0.022 | lapatinib -0.026 | pictilisib 0.023 | crizotinib 0.011 | [5] 0.086 | duvelisib 0.05 | gandotinib -0.059 | tozasertib -0.007 | doramapimod -0.027 | bafetinib -0.022 | [6] -0.06

RPRD2 (UniProt Q5VT52)
inactive: alvocidib 0.015 | Tubastatin A -0.059 | [1] 0.048 | defactinib -0.032 | [2] 0.004 | encorafenib 0.125 | [3] -0.023 | alisertib -0.081 | [4] 0.052 | gefitinib -0.042 | lapatinib -0.001 | pictilisib -0.043 | crizotinib 0.013 | [5] 0.027 | duvelisib 0.029 | gandotinib -0.097 | tozasertib 0.021 | doramapimod -0.016 | bafetinib 0.006 | [6] -0.006

RPS6KB1 (UniProt P23443)
inactive: alvocidib -0.021 | Tubastatin A -0.184 | [1] 0.115 | defactinib 0.094 | [2] -0.013 | encorafenib -0.039 | [3] 0.218 | alisertib -0.02 | [4] 0.166 | gefitinib 0.062 | lapatinib 0.009 | pictilisib 0.075 | crizotinib 0.16 | [5] -0.104 | duvelisib 0.001 | gandotinib 0.051 | tozasertib 0.022 | doramapimod -0.05 | bafetinib 0.006 | [6] 0.177

RPS15 (UniProt P62841)
inactive: alvocidib -0.049 | Tubastatin A 0.023 | [1] 0.008 | defactinib 0.017 | [2] 0.035 | encorafenib -0.024 | [3] 0.025 | alisertib 0.015 | [4] -0.008 | gefitinib 0.002 | lapatinib -0.013 | pictilisib -0.022 | crizotinib -0.05 | [5] -0.134 | duvelisib 0.015 | gandotinib 0.127 | tozasertib -0.049 | doramapimod 0.03 | bafetinib -0.017 | [6] 0.154

RUFY3 isoform 3 (UniProt Q7L099)
inactive: alvocidib -0.009 | Tubastatin A -0.01 | [1] 0.004 | defactinib -0.004 | [2] -0.013 | encorafenib 0.064 | [3] -0.069 | alisertib 0.012 | [4] 0.014 | gefitinib -0.024 | lapatinib -0.007 | pictilisib -0.02 | crizotinib 0.028 | [5] 0.015 | duvelisib 0.029 | gandotinib -0.049 | tozasertib 0.046 | doramapimod -0.009 | bafetinib -0.007 | [6] 0.008

RPLP2 (UniProt P05387)
inactive: alvocidib 0.011 | Tubastatin A 0.041 | [1] 0.024 | defactinib 0.002 | [2] -0.03 | encorafenib -0.003 | [3] -0.016 | alisertib 0.049 | [4] 0.005 | gefitinib -0.033 | lapatinib 0.026 | pictilisib -0.014 | crizotinib -0.013 | [5] 0.028 | duvelisib -0.01 | gandotinib -0.02 | tozasertib 0.003 | doramapimod 0.006 | bafetinib -0.083 | [6] -0.02

RUFY1 (UniProt Q96T51)
inactive: alvocidib 0.015 | Tubastatin A -0.011 | [1] 0.008 | defactinib 0.021 | [2] -0.03 | encorafenib 0.017 | [3] -0.058 | alisertib -0.008 | [4] -0.011 | gefitinib 0.011 | lapatinib -0.008 | pictilisib -0.011 | crizotinib -0.013 | [5] -0.011 | duvelisib 0.017 | gandotinib -0.041 | tozasertib 0.002 | doramapimod 0.012 | bafetinib -0.018 | [6] 0.028

RTN3 (UniProt O95197)
inactive: alvocidib -0.057 | Tubastatin A 0.037 | [1] 0.006 | defactinib -0.019 | [2] 0.046 | encorafenib 0.018 | [3] -0.034 | alisertib 0.008 | [4] 0.001 | gefitinib -0.013 | lapatinib -0.024 | pictilisib 0.007 | crizotinib 0.012 | [5] -0.183 | duvelisib 0.001 | gandotinib 0.062 | tozasertib 0.016 | doramapimod -0.024 | bafetinib -0.038 | [6] 0.04

RRM2 isoform 2 (UniProt P31350)
inactive: alvocidib 0.015 | Tubastatin A 0.032 | [1] 0.027 | defactinib 0.011 | [2] 0.031 | encorafenib 0.003 | [3] 0.015 | alisertib 0.004 | [4] -0.013 | gefitinib 0.008 | lapatinib 0.041 | pictilisib 0.007 | crizotinib 0.035 | [5] 0.006 | duvelisib -0.009 | gandotinib 0.099 | tozasertib -0.059 | doramapimod 0.085 | bafetinib 0.01 | [6] -0.097

RPP25 (UniProt Q9BUL9)
inactive: alvocidib 0.015 | Tubastatin A 0.039 | [1] 0.021 | defactinib 0.073 | [2] 0.07 | encorafenib -0.032 | [3] -0.24 | alisertib -0.181 | [4] -0.022 | gefitinib 0.067 | lapatinib 0.034 | pictilisib -0.014 | crizotinib -0.014 | [5] 0.015 | duvelisib -0.003 | gandotinib -0.012 | tozasertib -0.056 | doramapimod 0.011 | bafetinib -0.105 | [6] -0.037

RUBCN (UniProt Q92622)
inactive: alvocidib -0.133 | Tubastatin A 0.08 | [1] 0.072 | defactinib 0.021 | [2] 0.067 | encorafenib -0.099 | [3] 0.054 | alisertib 0.015 | [4] 0 | gefitinib -0.023 | lapatinib 0 | pictilisib -0.027 | crizotinib -0.016 | [5] -0.101 | duvelisib -0.062 | gandotinib -0.005 | tozasertib -0.032 | doramapimod -0.009 | bafetinib 0.01 | [6] 0.044

RPL7 (UniProt P18124)
inactive: alvocidib 0.006 | Tubastatin A 0.012 | [1] 0.012 | defactinib -0.002 | [2] 0.038 | encorafenib -0.021 | [3] -0.006 | alisertib 0.012 | [4] -0.001 | gefitinib -0.057 | lapatinib -0.033 | pictilisib 0.011 | crizotinib 0.008 | [5] 0.016 | duvelisib 0.014 | gandotinib 0.008 | tozasertib -0.052 | doramapimod -0.04 | bafetinib 0.022 | [6] 0.013

RWDD4 (UniProt Q6NW29)
inactive: alvocidib -0.021 | Tubastatin A 0.016 | [1] 0.005 | defactinib 0.029 | [2] 0.02 | encorafenib -0.004 | [3] 0.039 | alisertib -0.001 | [4] -0.027 | gefitinib 0.022 | lapatinib 0.007 | pictilisib 0.02 | crizotinib -0.006 | [5] -0.084 | duvelisib -0.033 | gandotinib 0.071 | tozasertib 0.006 | doramapimod -0.008 | bafetinib 0.021 | [6] -0.025

RTN2 (UniProt O75298)
inactive: alvocidib -0.045 | Tubastatin A 0 | [1] 0.006 | defactinib 0.042 | [2] -0.075 | encorafenib 0.047 | [3] -0.044 | alisertib 0.027 | [4] -0.105 | gefitinib 0.042 | lapatinib 0.024 | pictilisib -0.202 | crizotinib 0.059 | [5] 0.019 | duvelisib -0.053 | gandotinib -0.006 | tozasertib -0.021 | doramapimod -0.036 | bafetinib 0.091 | [6] 0.032

RSBN1L (UniProt Q6PCB5)
inactive: alvocidib -0.048 | Tubastatin A 0.013 | [1] -0.039 | defactinib 0.01 | [2] 0.054 | encorafenib 0.122 | [3] 0.079 | alisertib -0.043 | [4] 0.021 | gefitinib -0.017 | lapatinib 0.002 | pictilisib 0.005 | crizotinib -0.078 | [5] -0.032 | duvelisib 0.006 | gandotinib 0.019 | tozasertib -0.024 | doramapimod 0.001 | bafetinib -0.009 | [6] 0.024

RRBP1 (UniProt Q9P2E9)
inactive: alvocidib 0.021 | Tubastatin A 0.007 | [1] -0.009 | defactinib 0.002 | [2] -0.001 | encorafenib 0.018 | [3] -0.038 | alisertib 0.003 | [4] 0.01 | gefitinib -0.002 | lapatinib -0.029 | pictilisib -0.005 | crizotinib -0.008 | [5] 0.067 | duvelisib -0.008 | gandotinib -0.09 | tozasertib -0.013 | doramapimod -0.017 | bafetinib -0.012 | [6] -0.043

Two records drawn at random from those above:
RSBN1L (UniProt Q6PCB5)
inactive: alvocidib -0.048 | Tubastatin A 0.013 | [1] -0.039 | defactinib 0.01 | [2] 0.054 | encorafenib 0.122 | [3] 0.079 | alisertib -0.043 | [4] 0.021 | gefitinib -0.017 | lapatinib 0.002 | pictilisib 0.005 | crizotinib -0.078 | [5] -0.032 | duvelisib 0.006 | gandotinib 0.019 | tozasertib -0.024 | doramapimod 0.001 | bafetinib -0.009 | [6] 0.024

RTN2 (UniProt O75298)
inactive: alvocidib -0.045 | Tubastatin A 0 | [1] 0.006 | defactinib 0.042 | [2] -0.075 | encorafenib 0.047 | [3] -0.044 | alisertib 0.027 | [4] -0.105 | gefitinib 0.042 | lapatinib 0.024 | pictilisib -0.202 | crizotinib 0.059 | [5] 0.019 | duvelisib -0.053 | gandotinib -0.006 | tozasertib -0.021 | doramapimod -0.036 | bafetinib 0.091 | [6] 0.032
